Results from PubChem BioAssay AID540275 (National Center for Advancing Translational Sciences (NCATS), 2011).
Screen size: about 320,000 compounds; about 620 (0.19%) were called active. The inconclusive results got no clear call from the source; some entries with a clear call stand among them for comparison. Rule as the data show it: active = activation above about 80%; inconclusive = between about 30% and that limit; inactive = weaker than that.
Also: 0% is about no effect.

Chains of the proteins cited; added tags and fusions are not shown.
UniProt Q8NER1, whole entry, looked up: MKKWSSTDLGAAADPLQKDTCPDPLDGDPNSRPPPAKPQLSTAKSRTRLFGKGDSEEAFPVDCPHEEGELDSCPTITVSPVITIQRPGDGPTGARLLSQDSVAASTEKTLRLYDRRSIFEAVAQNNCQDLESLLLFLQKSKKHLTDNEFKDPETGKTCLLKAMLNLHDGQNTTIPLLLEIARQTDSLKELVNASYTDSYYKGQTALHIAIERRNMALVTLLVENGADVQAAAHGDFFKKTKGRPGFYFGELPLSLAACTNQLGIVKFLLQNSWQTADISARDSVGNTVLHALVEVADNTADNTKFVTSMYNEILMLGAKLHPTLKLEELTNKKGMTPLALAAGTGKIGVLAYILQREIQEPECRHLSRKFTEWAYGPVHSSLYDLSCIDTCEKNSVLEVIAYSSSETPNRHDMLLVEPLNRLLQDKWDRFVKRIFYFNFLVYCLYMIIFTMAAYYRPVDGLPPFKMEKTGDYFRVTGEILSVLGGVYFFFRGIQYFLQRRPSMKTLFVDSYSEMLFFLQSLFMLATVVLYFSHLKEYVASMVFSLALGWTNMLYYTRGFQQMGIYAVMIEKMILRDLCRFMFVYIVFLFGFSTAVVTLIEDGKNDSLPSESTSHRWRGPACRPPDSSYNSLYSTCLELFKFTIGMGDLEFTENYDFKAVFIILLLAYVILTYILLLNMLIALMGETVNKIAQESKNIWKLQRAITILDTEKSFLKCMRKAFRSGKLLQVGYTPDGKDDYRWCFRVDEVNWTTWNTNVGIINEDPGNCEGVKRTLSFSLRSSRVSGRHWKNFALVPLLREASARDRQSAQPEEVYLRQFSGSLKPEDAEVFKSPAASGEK

Each compound was assayed against Transient receptor potential cation channel subfamily V member 1 (Homo sapiens) (UniProt Q8NER1) (assay: HTS Assay for Compounds that Act as Agonists of the Vanilloid Receptor 1). Details: TRPV1-expressing cells, Fluo-8 calcium influx, agonist mode; at 8.33 µM, active compounds read high.
In short: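 Fluo-8 calcium influx in TRPV1-expressing cells, kinetic read (ex 480/em 520 nm). Compound added and read 3 min for agonist activity, followed by capsaicin at EC20 final and 2 min further read for enhancement.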
In the case of `CN(CCC#N)C(=O)COC(=O)c1ccc2c(c1)C(=O)N(C1CCCCC1)C2=O`, the activation was inactive: 2.03%. For `O=c1oc2c(CN3CCCCCC3)c(O)ccc2cc1-c1nc2ccccc2[nH]1`, the activation was inconclusive: 61.1%. With `CCc1ccc(/C=C2/SC(=S)N(CCC(=O)Nc3ccc(C(=O)O)cc3)C2=O)cc1` the activation was inconclusive: 35%. With `C=C(C)C1CC=C(C)/C(=N/NC(=O)c2ccoc2C)C1` (stereo not drawn) the activation was inconclusive: 50.3%. For `COc1ccc(NC(=O)CN2CCC(C(=O)c3ccc(F)cc3)CC2)c(OC)c1`, the activation was inactive: 18.4%. In the case of `O=C(O)CC(C(=O)O)N1C(=O)/C(=C/c2ccc(-c3nc4ccccc4s3)o2)SC1=S` (stereo not drawn), the activation was inactive: 6.63%. In the case of `COc1cccc(/C=C/C(=O)NCc2ccc3c(c2)OCO3)c1`, the activation was inconclusive: 46.6%. For `O=C(NCCCc1ccccc1)c1ccc(F)cc1`, the activation was active: 87.6%. For `O=[N+]([O-])c1ccc(C=Nc2ccc(Cl)c([N+](=O)[O-])c2)s1`, the activation was inactive: 1.34%. For `CCOc1cc(C=O)cc(Br)c1OCC(=O)NCCc1ccccc1`, the activation was inconclusive: 40.8%. With `Cc1cc(Cl)ccc1NC(=S)NCc1ccccc1` the activation was inconclusive: 48.7%. For `COC(=O)c1cc2c(-c3ccccc3)c(C)c3ccccn3c-2c1C(=O)OC`, the activation was inactive: 7.74%. With `CCn1c(SCC(N)=O)nc2sc3c(c2c1=O)CCCC3` the activation was inconclusive: 39%. In the case of `CCOc1nc(NCCO)nc(NCCC2=CCCCC2)n1`, the activation was inconclusive: 38.1%. In the case of `CCCN1C(=O)SC(CC(=O)Nc2ccccc2C)C1=O` (stereo not drawn), the activation was inconclusive: 60.7%. With `COc1ccc(-c2nnc(SCC(C)C)o2)cc1` the activation was inconclusive: 41%. In the case of `Cc1onc(-c2ccccc2Cl)c1C(=O)N1CCOC12CCCCC2`, the activation was inconclusive: 56.7%. For `Cc1ccc(-c2n[nH]c3c2CCC3)cc1`, the activation was inconclusive: 30.2%. For `O=C(C1CC1)N1CCc2cc(S(=O)(=O)NCCC3=CCCCC3)ccc21`, the activation was inconclusive: 35.2%. For `CC(C)Cn1c([N+](=O)[O-])nc2c1c(=O)[nH]c(=O)n2C`, the activation was inactive: 0.303%. With `CCN(CC)c1ccc(/C=N/NC(=O)c2cnccn2)c(O)c1` the activation was inconclusive: 40.5%. For `O=C1CN(C(=O)N[C@@H](Cc2ccccc2)C(=O)N[C@H](C(=O)O)c2ccccc2)c2ccccc2N1`, the activation was inactive: 0.126%. With `Nc1ncnc2c1ncn2[C@@H]1O[C@H](COP(=O)(O)O)[C@@H](O)[C@H]1O` the activation was inactive: 3.99%. `Cc1cccnc1NC(=O)c1ccc(NS(=O)(=O)/C=C/c2ccccc2)cc1` was tested, and the activation was inconclusive: 49%. In the case of `O=C(Nc1cccc2ccccc12)c1ccc(OC(=S)N2CCOCC2)cc1`, the activation was inconclusive: 34.6%. In the case of `O=C(Nc1ccccc1Cl)NC1CCCCCCC1`, the activation was inconclusive: 33.2%. In the case of `CC(C)c1ccc(/C=C/C2=NNC(=O)CC2)cc1`, the activation was inconclusive: 32.5%. In the case of `N#Cc1c(C(F)(F)F)cc(-c2ccco2)nc1SCc1ccccn1`, the activation was inconclusive: 51.1%. In the case of `COc1cccc(CNC(=O)CCC2CCCN(C(=O)c3ccc(F)c(Cl)c3)C2)c1` (stereo not drawn), the activation was inconclusive: 53.6%. With `CN(CC(=O)Nc1cccc(F)c1)C(=O)/C=C/c1ccc(Br)s1` the activation was inconclusive: 36.2%. In the case of `O=C(NCCC1=CCCCC1)NC12CC3CC(CC(C3)C1)C2`, the activation was inconclusive: 44.5%. For `O=C(NCc1ccccc1F)Nc1ccc([N+](=O)[O-])cc1`, the activation was inconclusive: 52.9%. For `N#Cc1nc(-c2ccco2)oc1NCCc1ccccc1`, the activation was inconclusive: 56.9%. `COc1ccc(/C=N/N(CCC(=O)NC(C)(C)C)C2=NS(=O)(=O)c3ccccc32)cc1` was tested, and the activation was inconclusive: 44.5%. With `Brc1ccc(C2C3=C(Nc4ncnn42)c2ccccc2OC3c2ccncc2)cc1` (stereo not drawn) the activation was inconclusive: 56.6%. In the case of `O=C(CSc1nc2ccc(Cl)cc2[nH]1)NCCc1ccccc1`, the activation was inconclusive: 78.4%. For `CSCc1ccc(C(=O)N2CCCC(Nc3ccc(F)cc3)C2)o1` (stereo not drawn), the activation was active: 84%. With `CCC(C)NC(=O)c1ccc2c(c1)N(Cc1ccccc1)C(=O)CS2` (stereo not drawn) the activation was inconclusive: 32.8%. In the case of `O=C(O)/C(=C\c1cccs1)Sc1nnc(-c2ccc(F)cc2)o1`, the activation was inconclusive: 48.2%. `CC(C)c1ccc(C(=O)Nc2cccnc2)cc1` was tested, and the activation was inconclusive: 65.2%. With `CC(C)(C)c1ccc(C(=O)NNC(=O)c2cccc(Br)c2)cc1` the activation was inconclusive: 59.1%. For `Cc1ccc(C(=O)N2CCN(C34CC5CC(CC(C5)C3)C4)CC2)o1`, the activation was inconclusive: 34.8%. `CC(=O)Nc1ccc(NC(=O)CSc2nnc(NC(=O)c3ccc(Br)o3)s2)cc1` was tested, and the activation was inactive: -2.09%. In the case of `O=C(Nc1ccc(Cl)c(Cl)c1)OCCNC(=O)c1ccncc1`, the activation was inconclusive: 31.3%. `CCOc1ccc2nc3c(cc2c1)CN(CCCO)C(=NCCOC)S3` was tested, and the activation was inconclusive: 64.5%. In the case of `CC(C)CCn1c(Oc2ccc(Cl)cc2)nc2c1c(=O)n(C)c(=O)n2C`, the activation was inactive: 1.46%. `Cc1nc2scc(-c3ccc(C(C)(C)C)cc3)c2c(=O)n1N` was tested, and the activation was inconclusive: 30.4%. `C#Cc1ccc(CN2CCC(Oc3cc(C(=O)NC4CC4)ccc3OC)CC2)cc1` was tested, and the activation was inactive: 10.9%. In the case of `COc1ccccc1NS(=O)(=O)c1ccc(C)c(C(=O)NC2CCN(Cc3ccccc3)CC2)c1`, the activation was inactive: 10.4%. `CCc1cc2c(Nc3ccccc3O)nc(C)nc2s1` was tested, and the activation was inconclusive: 34.3%. For `CC1=C(/C=C/C(C)=C/C=C/C(C)=C/C(=O)Nc2ccc(O)cc2)C(C)(C)CCC1`, the activation was inconclusive: 62.6%. In the case of `Cc1cc(NC(=O)c2cccs2)n(-c2nc3ccccc3[nH]2)n1`, the activation was inconclusive: 43.1%. In the case of `COc1ccc(C(=O)Nc2ccc3[nH]ncc3c2)cc1`, the activation was inconclusive: 52%. In the case of `Cc1ccc(NC(=O)CC(C(=O)O)c2ccccc2)cc1` (stereo not drawn), the activation was inactive: -1.59%. `COc1cccc(/C=N/n2c(SC)nnc2-c2ccccc2)c1O` was tested, and the activation was active: 88.6%. `CCCOC(=O)c1ccc(Oc2c(-c3ccc(OCC)cc3O)n[nH]c2C)cc1` was tested, and the activation was inactive: 17.9%. In the case of `CN1C(=O)c2ccccc2N(C)C1c1cccs1` (stereo not drawn), the activation was inactive: -3.5%. With `CC1=NNC(=O)C(CC(=O)Nc2ccc(Cl)c(Cl)c2)C1` (stereo not drawn) the activation was inactive: 3.99%.
